From publication PMC6003574, “Selection of a novel CD19 aptamer for targeted delivery of doxorubicin to lymphoma cells”

Protein sequences, listed by entry. Tags and fused reporters are not part of them. Residues count along the entry.
UniProt P15391, 20-556: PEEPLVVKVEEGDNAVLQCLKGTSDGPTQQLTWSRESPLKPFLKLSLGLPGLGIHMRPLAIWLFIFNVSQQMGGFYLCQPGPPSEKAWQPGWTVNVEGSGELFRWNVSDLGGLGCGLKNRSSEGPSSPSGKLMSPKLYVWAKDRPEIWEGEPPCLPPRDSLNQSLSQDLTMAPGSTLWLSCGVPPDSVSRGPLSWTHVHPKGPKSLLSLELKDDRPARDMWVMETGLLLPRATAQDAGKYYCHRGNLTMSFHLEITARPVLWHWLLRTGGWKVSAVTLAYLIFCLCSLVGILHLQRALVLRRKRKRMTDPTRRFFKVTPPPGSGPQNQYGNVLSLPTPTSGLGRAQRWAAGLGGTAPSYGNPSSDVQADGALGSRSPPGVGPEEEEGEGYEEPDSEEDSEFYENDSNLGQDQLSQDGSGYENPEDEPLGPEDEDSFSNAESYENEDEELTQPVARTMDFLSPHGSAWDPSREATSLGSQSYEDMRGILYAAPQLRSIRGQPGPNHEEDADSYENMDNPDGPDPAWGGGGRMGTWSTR

Tests used:
Ovalbumin (OVA) = target: T1, Ovalbumin (OVA) (UniProt P01012); test: flow cytometry on protein-coated beads; conditions: PBS, 37 C, 30 min, three PBS washes; bead flow cytometry, random ssDNA pool as background; pH not stated; commercial protein; single-stranded DNA
T1 sequence (looked up, limits assumed): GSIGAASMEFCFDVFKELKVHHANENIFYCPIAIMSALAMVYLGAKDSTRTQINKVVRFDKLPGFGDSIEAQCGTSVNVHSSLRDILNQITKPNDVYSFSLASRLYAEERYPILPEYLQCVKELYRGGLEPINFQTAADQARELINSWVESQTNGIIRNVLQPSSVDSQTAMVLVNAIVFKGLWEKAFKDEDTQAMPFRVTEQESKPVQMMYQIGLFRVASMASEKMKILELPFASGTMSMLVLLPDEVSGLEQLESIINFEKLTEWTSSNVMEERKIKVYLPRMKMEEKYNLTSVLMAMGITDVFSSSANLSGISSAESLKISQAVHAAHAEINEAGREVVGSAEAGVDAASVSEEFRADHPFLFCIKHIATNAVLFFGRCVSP

CD19 on Raji cells = CD19 on Raji cells (UniProt P15391); test: flow cytometry and confocal microscopy on cells; conditions: Raji cells, CD19-negative Jurkat and NB4 weak; PBS, 37 C, 30 min, three PBS washes; bead flow cytometry, random ssDNA pool as background; pH not stated; protein on the cell surface; single-stranded DNA
CD19 on Ramos cells = CD19 on Ramos cells (UniProt P15391); test: flow cytometry and confocal microscopy on cells; conditions: Ramos cells, CD19-negative Jurkat and NB4 weak; PBS, 37 C, 30 min, three PBS washes; bead flow cytometry, random ssDNA pool as background; pH not stated; protein on the cell surface; single-stranded DNA

Sequence: TGCGTGTGTAGTGTGTCTGTTCTCCTTTTTTTGGTTGCTGCTCTTAGGGATTTGGGCGG [LC1]
- binding result (Ovalbumin (OVA)): binds more weakly
- binding result (CD19 on Raji cells): binds
- binding result (CD19 on Ramos cells): binds

For part of these data: The comparison behind a weaker result is the experiment's own reference, which may not be listed here. For part of these data: Where a protein sequence is shown, tags need not be part of it. For part of these data: The exact form of at least one protein or probe is not confirmed. For part of these data: Where cells or extracts were used, other partners may take part.
